The list shows a part of the results. Many values rest on one well or one pass, so single values are uncertain.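 Cells were imaged in 1,536-well plates, and nuclei stained with an antibody against cleaved PARP were counted against all DNA-stained nuclei to give the apoptosis fraction. Screening doses were chosen to leave most cells alive, and resting and induced cleaved-PARP levels differ strongly between cell lines.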
Each molecule was assayed on LOXIMVI (assay: cleaved PARP positive nuclei fraction relative to DMSO control; melanoma cells; higher = more apoptosis). Conditions: library dose: low library concentration; 72 h.
With Cn1cncc1[C@@](N)(c1ccc(Cl)cc1)c1ccc2c(c1)c(-c1cccc(Cl)c1)cc(=O)n2C [tipifarnib] + c1cc(-c2cnn3cc(-c4ccc(OCCN5CCCCC5)cc4)cnc23)ccn1 [Dorsomorphin] (first compound 0.01 µM, partner dose 0.4 µM) the “cleaved PARP positive nuclei fraction” value was 616%. In the case of Cc1cc(N2CCOCC2)cc2[nH]c(-c3c(NC[C@@H](O)c4cccc(Cl)c4)cc[nH]c3=O)nc12 + Cn1cc(/C=C2\C(=O)Nc3cccnc32)c2ccccc21 [GW441756] (first compound 0.2 µM, partner dose 0.4 µM), the “cleaved PARP positive nuclei fraction” value is reported as 27.4%. In the case of Cn1c(Nc2ccc(C(F)(F)F)cc2)nc2cc(Oc3ccnc(-c4ncc(C(F)(F)F)[nH]4)c3)ccc21 + Oc1nc(-c2ccc(C(F)(F)F)cc2)nc2c1CSCC2 [XAV939] (first compound 0.08 µM, partner dose 2 µM), the “cleaved PARP positive nuclei fraction” value is reported as 98.4%. In the case of Cn1nnc2c(C(N)=O)ncn2c1=O [temozolomide] + CC(C)CCN1c2nc(Nc3cc(F)c(O)c(F)c3)ncc2N(C)C(=O)C1C [BID1870] (first compound 2 µM, partner dose 0.2 µM), the “cleaved PARP positive nuclei fraction” value is reported as 74.3%. In the case of C[C@]1(c2nc3c(C(N)=O)cccc3[nH]2)CCCN1 [Veliparib] + O=C(O)C(=O)Nc1sc2c(c1C(=O)O)CCNC2 [TCS401] (first compound 1.4 µM, partner dose 1.66667 µM), the “cleaved PARP positive nuclei fraction” value is reported as 75.6%. In the case of O=C(Nc1cccc(Cl)c1)Nc1ncc(CCNc2ncnc3ccsc23)s1 + COc1cc2ncnc(Nc3ccc(Oc4ccccc4)cc3)c2cc1OC [SrcI1] (first compound 0.0008 µM, partner dose 2 µM), the “cleaved PARP positive nuclei fraction” value is reported as 19.6%. For NC(=O)Nc1cc(-c2cccc(F)c2)sc1C(=O)N[C@H]1CCCNC1 + O=c1cc(-c2cccc3c2Sc2ccccc2S3)oc(N2CCOCC2)c1 [KU55933] (first compound 0.02 µM, partner dose 1 µM), the “cleaved PARP positive nuclei fraction” value was 26.6%. In the case of CC(C)(C)c1cnc(CSc2cnc(NC(=O)C3CCNCC3)s2)o1 + N#Cc1c(O)c2c(-c3ccc(-c4ccccc4O)cc3)csc2[nH]c1=O [A769662] (first compound 0.01 µM, partner dose 2 µM), the “cleaved PARP positive nuclei fraction” value is reported as 91%.
